Test results reported in publication PMC11399395.
These are yes or no findings as the source states them, for the method shown. In cells and extracts the contact can be indirect. Some entries that bind do so weakly or less than the wild type.

The chains behind the UniProt entries cited, without tags or fusion partners. Where a name states a change or a piece, a line headed by the entry shows the natural chain unless it says otherwise.
UniProt Q09472: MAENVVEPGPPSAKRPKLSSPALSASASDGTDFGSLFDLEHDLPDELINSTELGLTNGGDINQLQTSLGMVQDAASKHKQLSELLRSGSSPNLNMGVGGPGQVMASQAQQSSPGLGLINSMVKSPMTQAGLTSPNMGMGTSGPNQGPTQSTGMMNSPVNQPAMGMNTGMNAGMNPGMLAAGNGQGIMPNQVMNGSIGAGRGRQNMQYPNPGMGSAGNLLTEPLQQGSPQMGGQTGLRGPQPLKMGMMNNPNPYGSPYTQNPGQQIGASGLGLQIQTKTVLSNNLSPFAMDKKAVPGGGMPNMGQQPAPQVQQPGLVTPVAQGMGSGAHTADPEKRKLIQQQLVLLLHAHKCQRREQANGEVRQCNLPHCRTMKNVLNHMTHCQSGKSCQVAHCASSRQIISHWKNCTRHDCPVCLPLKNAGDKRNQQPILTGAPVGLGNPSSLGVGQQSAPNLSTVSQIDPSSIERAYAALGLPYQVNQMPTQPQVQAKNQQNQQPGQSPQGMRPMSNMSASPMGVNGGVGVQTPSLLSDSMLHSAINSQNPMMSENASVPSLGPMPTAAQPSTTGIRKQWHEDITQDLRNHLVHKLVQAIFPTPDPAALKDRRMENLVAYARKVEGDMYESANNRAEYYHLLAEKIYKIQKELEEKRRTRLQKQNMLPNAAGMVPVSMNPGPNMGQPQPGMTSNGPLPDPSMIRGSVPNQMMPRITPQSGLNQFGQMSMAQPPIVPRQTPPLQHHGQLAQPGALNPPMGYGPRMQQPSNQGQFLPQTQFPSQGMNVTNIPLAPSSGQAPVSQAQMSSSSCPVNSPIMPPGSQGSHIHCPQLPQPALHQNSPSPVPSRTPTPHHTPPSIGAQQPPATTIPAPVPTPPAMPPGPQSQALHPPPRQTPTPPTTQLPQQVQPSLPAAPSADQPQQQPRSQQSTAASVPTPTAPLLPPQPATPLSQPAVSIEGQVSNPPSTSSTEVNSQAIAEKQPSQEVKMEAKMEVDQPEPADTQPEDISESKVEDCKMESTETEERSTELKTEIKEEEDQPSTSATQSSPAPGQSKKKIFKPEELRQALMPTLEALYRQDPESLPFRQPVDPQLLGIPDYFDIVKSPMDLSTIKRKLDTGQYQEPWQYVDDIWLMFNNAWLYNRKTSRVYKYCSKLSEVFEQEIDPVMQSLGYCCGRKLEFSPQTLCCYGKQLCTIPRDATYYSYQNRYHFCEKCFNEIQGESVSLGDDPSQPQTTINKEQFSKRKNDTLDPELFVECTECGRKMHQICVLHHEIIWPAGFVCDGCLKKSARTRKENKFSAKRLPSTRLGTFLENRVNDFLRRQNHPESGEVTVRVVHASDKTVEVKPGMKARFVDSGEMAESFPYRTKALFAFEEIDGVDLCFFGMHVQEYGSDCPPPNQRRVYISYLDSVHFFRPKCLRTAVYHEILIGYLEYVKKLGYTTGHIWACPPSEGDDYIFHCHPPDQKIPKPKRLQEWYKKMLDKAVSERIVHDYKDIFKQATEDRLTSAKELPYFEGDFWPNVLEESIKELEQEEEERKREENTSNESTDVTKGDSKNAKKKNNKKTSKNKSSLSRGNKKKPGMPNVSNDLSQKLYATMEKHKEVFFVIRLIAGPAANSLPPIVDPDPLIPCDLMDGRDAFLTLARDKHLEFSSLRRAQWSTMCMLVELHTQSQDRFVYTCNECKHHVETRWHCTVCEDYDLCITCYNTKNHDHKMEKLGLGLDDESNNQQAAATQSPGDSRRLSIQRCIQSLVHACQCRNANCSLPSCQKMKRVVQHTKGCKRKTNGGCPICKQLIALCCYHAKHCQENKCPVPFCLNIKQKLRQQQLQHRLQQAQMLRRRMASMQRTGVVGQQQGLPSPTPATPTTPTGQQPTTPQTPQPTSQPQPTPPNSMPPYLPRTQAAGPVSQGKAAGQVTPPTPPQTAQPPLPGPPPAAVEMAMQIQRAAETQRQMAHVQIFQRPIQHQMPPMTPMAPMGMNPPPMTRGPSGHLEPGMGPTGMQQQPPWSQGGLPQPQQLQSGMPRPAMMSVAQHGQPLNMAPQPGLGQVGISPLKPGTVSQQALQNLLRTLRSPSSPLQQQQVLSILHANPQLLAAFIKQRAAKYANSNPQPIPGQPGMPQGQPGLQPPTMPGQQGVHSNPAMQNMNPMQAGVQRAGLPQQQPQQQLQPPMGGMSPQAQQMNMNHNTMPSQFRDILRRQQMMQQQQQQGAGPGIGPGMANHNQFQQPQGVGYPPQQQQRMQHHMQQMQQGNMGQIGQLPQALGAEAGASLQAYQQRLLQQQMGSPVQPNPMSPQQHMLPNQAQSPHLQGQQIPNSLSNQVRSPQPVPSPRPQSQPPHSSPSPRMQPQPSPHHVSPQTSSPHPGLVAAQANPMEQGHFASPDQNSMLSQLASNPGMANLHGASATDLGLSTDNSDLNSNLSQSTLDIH

Target: runt-related transcription factor 1 (RUNX1) (human (endogenous in THP-1)) (UniProt Q01196)
Assay: proximity ligation; Duolink In Situ PLA in THP-1 cells (NTC control and SMANTIS knockout), fixed with 4% PFA, permeabilised with 0.05% Triton X-100; goat anti-RUNX1 (MINUS) with rabbit anti-EP300, anti-SIN3A or anti-CBFB (PLUS); signals counted in nucleus and cytoplasm

- binding: binds
Substance: E1A Binding Protein P300 (EP300) (from UniProt Q09472 1-2414)
